# doi:10.1101/2021.05.26.443198
# Protein sequences, listed by entry. Tags and fused reporters are not part of them.
# UniProt P40763: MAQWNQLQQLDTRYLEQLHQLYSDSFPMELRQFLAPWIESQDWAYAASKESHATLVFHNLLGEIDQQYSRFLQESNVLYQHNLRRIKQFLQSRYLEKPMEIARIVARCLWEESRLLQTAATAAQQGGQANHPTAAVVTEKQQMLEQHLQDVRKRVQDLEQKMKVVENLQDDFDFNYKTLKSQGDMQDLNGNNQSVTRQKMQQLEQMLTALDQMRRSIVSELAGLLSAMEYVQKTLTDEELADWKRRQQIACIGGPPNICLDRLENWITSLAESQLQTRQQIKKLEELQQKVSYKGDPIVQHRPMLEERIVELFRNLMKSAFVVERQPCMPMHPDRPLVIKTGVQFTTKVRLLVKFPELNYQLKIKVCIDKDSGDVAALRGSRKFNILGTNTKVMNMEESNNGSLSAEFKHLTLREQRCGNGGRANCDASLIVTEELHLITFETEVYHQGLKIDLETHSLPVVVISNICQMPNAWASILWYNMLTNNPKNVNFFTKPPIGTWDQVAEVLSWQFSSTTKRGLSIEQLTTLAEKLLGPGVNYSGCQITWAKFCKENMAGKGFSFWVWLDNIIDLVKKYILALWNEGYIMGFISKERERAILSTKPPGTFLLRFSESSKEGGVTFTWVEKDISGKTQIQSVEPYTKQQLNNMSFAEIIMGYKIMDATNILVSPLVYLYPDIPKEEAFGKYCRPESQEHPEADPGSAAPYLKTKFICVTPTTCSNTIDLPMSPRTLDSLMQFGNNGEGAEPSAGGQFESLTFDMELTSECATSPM
# These are yes or no findings as the source states them, for the method shown. In cells and extracts the contact can be indirect. Some binding calls cover weakened binding; strength is not graded here.
# Target: T1, PIAS3 (human (in human breast cancer cells)) (UniProt Q9Y6X2)
# T1 sequence: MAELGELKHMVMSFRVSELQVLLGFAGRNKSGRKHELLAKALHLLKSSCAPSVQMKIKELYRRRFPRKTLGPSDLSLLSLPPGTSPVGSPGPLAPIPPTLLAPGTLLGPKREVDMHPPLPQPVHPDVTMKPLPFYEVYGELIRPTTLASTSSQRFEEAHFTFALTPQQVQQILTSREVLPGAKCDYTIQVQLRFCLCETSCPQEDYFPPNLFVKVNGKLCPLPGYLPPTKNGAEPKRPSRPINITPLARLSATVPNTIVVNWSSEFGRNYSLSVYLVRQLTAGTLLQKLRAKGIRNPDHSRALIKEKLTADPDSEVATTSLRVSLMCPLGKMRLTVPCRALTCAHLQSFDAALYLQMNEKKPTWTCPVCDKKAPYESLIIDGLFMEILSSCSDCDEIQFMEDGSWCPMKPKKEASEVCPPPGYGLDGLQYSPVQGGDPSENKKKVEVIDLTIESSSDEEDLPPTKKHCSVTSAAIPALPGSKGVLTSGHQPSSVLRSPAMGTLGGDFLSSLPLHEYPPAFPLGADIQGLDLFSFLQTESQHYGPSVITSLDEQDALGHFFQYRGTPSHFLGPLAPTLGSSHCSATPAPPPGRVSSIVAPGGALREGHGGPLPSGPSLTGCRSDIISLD
# Test: proximity ligation
substance,measurement,value
STAT3 (from UniProt P40763 1-770),binding,binds
